We go through 59 compounds from PubChem BioAssay AID2685 (National Center for Advancing Translational Sciences (NCATS), 2010).

Some of the results follow. The main result of the screen is listed elsewhere. These columns were measured beside it and carry no call. The list favours compounds with an active or inconclusive main result. The note in brackets gives the kind of curve behind each potency; many fits are weak.

The assay is described as follows: qHTS Assay for Lipid Storage Modulators in Drosophila S3 Cells.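 For cell number change: cells counted by Cell Tracker Red CMTPX staining in the red channel.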 To be noted: BODIPY lipid droplet fluorescence, 18-24 h; for cell number change: measured here: cell count max response, cells fed with added oleic acid. The method, boiled down: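 Laser-scanning cytometry quantifies lipid droplet accumulation (500–530 nm total intensity; droplet/cell object ratio) in oleic acid-fed (400 uM added) Drosophila S3 cells treated with a concentration series. 20 uM Triacsin C defined 100% inhibition.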
In general terms: Quantitative high-throughput screening tests each substance at several concentrations.

[1] abbreviates: measured here: lipid fluorescence (Fed channel) AC50, cells fed with added oleic acid.
The mark [2] stands for this setting: measured here: cell number channel AC50, cells fed with added oleic acid.

Turning to `O=C(Nc1ccccc1)c1ccc(NCC2CCCO2)c(S(=O)(=O)N2CCOCC2)c1` (stereo not drawn), the cell number change was -26%. In addition, under setting [1], the AC50 is 16.4 µM [falling, partial curve, poor fit].
Take `Cc1ccc(NC(=O)Cc2nnc(SCC(=O)c3ccc(Br)cc3)n2C)cc1Cl`: the cell number change came to 1.63%.
`Cc1ccc(-c2nc(-c3ccccn3)sc2CC(=O)O)cc1`: the cell number change worked out at 15.8%. Moreover, the AC50 under setting [1] is 29.1 µM [rising, single point].
As to `CCOC(=O)c1nc(N/N=C/c2ccccc2)sc1Br`, the cell number change is -28.6%. Also, under setting [1], the AC50 was 20.6 µM [falling, single point].
For the compound `CC(C)c1ccc(C2/C(=C(/O)c3ccccc3)C(=O)C(=O)N2CCCN2CCOCC2)cc1` (stereo not drawn), the cell number change is 3.15%. Under setting [1], the AC50 is 18.4 µM [falling, partial curve, poor fit].
Turning to `COc1ccc(N/N=C(C)/C(=N/O)C(=O)Nc2ccccc2)cc1`, the cell number change was 97.4%.
As for `N#CC1=C(N)Oc2n[nH]c(-c3cccs3)c2C1c1ccncc1` (stereo not drawn), the AC50 under setting [2] was 6.51 µM [falling, single point].
Regarding `COc1cc(NC(=O)c2ccccc2Cl)c2ncccc2c1`, the cell number change was -34.6%. In addition, under setting [2], the AC50 was 7.31 µM [falling, partial curve].
Take `CCOC(=O)C1(Cc2cccc(F)c2)CCN(Cc2ccon2)CC1`: the cell number change was determined as 0.868%. Further, the half-maximal activity concentration (AC50) under setting [1] was 0.731 µM [falling, full curve, poor fit].
On to `COCCn1ccc2c(OCC(=O)Nc3cccc(NC(C)=O)c3)cccc2c1=O`, for which, under setting [2], the AC50 is 0.13 µM [rising, full curve, poor fit].
On to `CC1CCN(C(=S)NCCc2ccccc2)CC1`, for which the cell number change came out at 57.4%. For the same compound, the half-maximal activity concentration (AC50) under setting [2] was 18.4 µM [rising, single point].
For the compound `CCN(CC(=O)Nc1ccc(OC)cc1)CC(=O)Nc1sc2c(c1C(=O)OC)CCCC2`, the cell number change is -1.16%. For the same compound, the AC50 under setting [1] is 0.00411 µM [rising, full curve, poor fit].
As for `O=C(c1ncc[nH]1)c1ccco1`, the cell number change was -1.08%. In addition, the AC50 under setting [1] is 32.6 µM [falling, single point].
For `CCS(=O)(=O)Nc1cccc(C2=NN(S(=O)(=O)c3ccc(F)cc3)C(c3cccs3)C2)c1` (stereo not drawn), the cell number change worked out at 11.9%.
Take `ONc1cccnc1-n1nc(C(F)(F)F)cc1C(F)(F)F`: the cell number change came to 2.39%. Under setting [1], the AC50 is 29.1 µM [rising, single point].
As for `Cc1cnccc1CNC(=O)CC1C(=O)NCCN1CC(C)(C)C` (stereo not drawn), the cell number change is -21.6%. Also, the AC50 under setting [1] is 4.11 µM [falling, partial curve, poor fit].
As to `COCCCN(C(=S)Nc1c(C)cc(C)cc1C)C(C)c1ccncc1` (stereo not drawn), the cell number change is 37.1%. In addition, the half-maximal activity concentration (AC50) under setting [2] is 32.6 µM [rising, single point]. For the same compound, the AC50 under setting [1] was 0.651 µM [falling, single point].
Turning to `Cc1ccc(OCc2cc(C(=O)NCCc3cccnc3)no2)cc1C`, the cell number change is -5.32%. Under setting [1], the AC50 is 0.13 µM [rising, full curve, poor fit].
Turning to `Cc1nn(-c2ccccc2)c(N)c1N=Nc1ccc(Cl)cc1`, the cell number change was -30.2%. Under setting [2], the AC50 was 13 µM [falling, partial curve]. The AC50 under setting [1] is 16.4 µM [falling, single point].
As to `CCOC(=O)c1cc2[nH]c3ccccc3c2[n+](-c2ccc([N+](=O)[O-])cc2)c1C`, the cell number change was found to be 48.5%. Under setting [2], the AC50 was 11.6 µM [rising, partial curve]. Moreover, under setting [1], the AC50 was 20.6 µM [rising, partial curve].
For the compound `O=C1C=C(c2cccc(Cl)c2)C[C@@H](c2ccc3c(c2)OCO3)C1`, the cell number change was -8.04%.
Turning to `Cc1ccc(C2(C)NC(=O)N(CC(=O)Nc3c(C)n(C)n(-c4ccccc4)c3=O)C2=O)cc1` (stereo not drawn), the AC50 by setting is: under setting [2], 0.13 µM [rising, full curve, poor fit]; under setting [1], 0.164 µM [rising, full curve, poor fit].
`CC(C)(C)Nc1nc(N2CCCC2)nc(N2CCCC2)n1`: the AC50 under setting [1] is 0.00461 µM [falling, full curve, poor fit].
`CC(CNCC1CCCO1)COc1ccccc1` (stereo not drawn): the cell number change is -16%. Further, under setting [1], the half-maximal activity concentration (AC50) was 25.9 µM [falling, partial curve].
In the case of `O=C(c1ccccc1-c1nc(-c2ccc(Cl)cc2)no1)N1CCCC1`, the cell number change stood at 43.8%. For the same compound, the AC50 under setting [2] is 2.31 µM [rising, partial curve]. Besides, under setting [1], the AC50 was 0.206 µM [rising, full curve].
For `CCc1ccc(C(=O)/C=C/c2ccc([N+](=O)[O-])o2)cc1`, under setting [1], the AC50 is 20.6 µM [falling, partial curve].
As to `COc1ccc(C2CC(c3ccccc3)n3nc(NC(=O)c4cccs4)nc3N2)cc1` (stereo not drawn), the cell number change was -13.7%. Moreover, the AC50 under setting [1] is 29.1 µM [falling, single point].
Regarding `Cc1ccc(NS(=O)(=O)c2cccc(C(=O)NCC3(N(C)C)CCCCC3)c2)cc1`, the cell number change was -22.7%. Also, under setting [1], the AC50 is 20.6 µM [falling, single point].
In the case of `Cc1ccc(NC(=O)C2COc3ccccc3O2)cc1C` (stereo not drawn), the cell number change was -9.97%.
For `CCCOc1ccc(C(=O)C(CCC(CNCC)C(=O)c2ccc(OCCC)cc2)CNCC)cc1` (stereo not drawn), the cell number change is -45.4%. For the same compound, the AC50 under setting [2] was 13 µM [falling, partial curve]. For the same compound, under setting [1], the AC50 is 1.64 µM [falling, partial curve].
With `CC1(C)Oc2ccc3ccc(=O)oc3c2/C(=C/Nc2cccc(O)c2)C1=O`, the cell number change is -28.3%. Further, under setting [1], the AC50 was 16.4 µM [falling, single point].
On to `COc1ccc(OCc2nnc(SCC(=O)NC3CCCCC3)o2)cc1`, for which the cell number change is -12.4%. For the same compound, under setting [1], the AC50 is 4.61 µM [rising, partial curve].
For the compound `COCCN(CC1CCCN(C2Cc3ccccc3C2)C1)C(=O)c1cccs1` (stereo not drawn), under setting [1], the AC50 was 29.1 µM [rising, single point].
In the case of `S=C(NCc1ccc(Cl)cc1)Nc1ccncc1`, the cell number change is -38.1%.
Consider `COc1ccc(CN(C)C(=O)c2ccccc2OCc2c(C)noc2C)cc1OC`, for which the cell number change was 8.15%. In addition, the AC50 under setting [1] was 6.51 µM [falling, single point].
`COCCNC(=O)c1ccc2c(=O)n(Cc3ccco3)c(SCC(=O)NC3CCCCC3)nc2c1`: the cell number change amounted to 16.7%. In addition, the AC50 under setting [2] was 0.366 µM [rising, full curve, poor fit]. Further, the half-maximal activity concentration (AC50) under setting [1] is 1.46 µM [rising, partial curve].
For `COc1cccc(C(=O)Nc2nc(C)cs2)c1`, the cell number change was found to be 8.52%.
`Cc1ccc(Sc2ncccc2C(=O)NCC(c2ccc(F)cc2)N2CCOCC2)cc1C` (stereo not drawn): the cell number change was found to be 76.1%. The AC50 under setting [2] was 7.31 µM [rising, partial curve].
Take `O=C(O)c1cccnc1SC1CC(=O)N(c2cccc(C(F)(F)F)c2)C1=O` (stereo not drawn): the AC50 under setting [2] was 4.11 µM [falling, single point].
In the case of `Cn1ccnc1C(O)(c1nnc(-c2ccccc2)o1)C(F)(F)F` (stereo not drawn), the cell number change is 151%. Besides, under setting [2], the concentration at half-maximal activity (AC50) is 29.1 µM [rising, single point]. Besides, the AC50 under setting [1] was 25.9 µM [rising, single point].
`O=C(O)c1ccc(NC(CSCc2cccc(F)c2)C(=O)O)c([N+](=O)[O-])c1` (stereo not drawn): the cell number change is -5.82%. The concentration at half-maximal activity (AC50) under setting [1] was 16.4 µM [falling, partial curve].
As for `Cc1sc2nc(C)n(/N=C/c3ccccc3)c(=O)c2c1C`, the cell number change was -2.45%. For the same compound, the AC50 under setting [1] is 0.651 µM [rising, full curve, poor fit].
Take `Cc1ccc(N/C=C/C(=O)c2sc(-c3ccccc3)nc2C)cc1`: the cell number change was determined as 19.5%. The AC50 under setting [1] was 0.291 µM [falling, partial curve, poor fit].
Consider `Cc1cc(Nc2ccccc2)c2c([N+](=O)[O-])cc(C)c(C)c2n1`, for which the cell number change is -142%. Further, the AC50 under setting [2] is 29.1 µM [falling, single point]. For the same compound, the AC50 under setting [1] is 29.1 µM [falling, single point].
Turning to `COc1cccc(NC(=O)CN2C(=O)CSc3ccc(S(=O)(=O)N4CCOCC4)cc32)c1`, the AC50 under setting [1] is 29.1 µM [rising, single point].
Turning to `COc1ccccc1C1(CC(=O)N2CCCCC2)CCOC(C(C)C)C1` (stereo not drawn), the cell number change came to 43.6%. Moreover, the AC50 under setting [2] is 14.6 µM [rising, single point].
Turning to `CCOC(=O)c1c(NC(=O)COC)sc(C)c1C`, the cell number change was -26.1%. Besides, the AC50 under setting [1] is 23.1 µM [falling, single point].
As for `COCC(=O)NC(C)c1nc2ccccc2[nH]1` (stereo not drawn), the cell number change is -189%. Besides, the AC50 under setting [2] is 25.9 µM [falling, partial curve]. Besides, the AC50 under setting [1] was 18.4 µM [falling, partial curve].
In the case of `CCCC(c1nnnn1Cc1ccc(OC)cc1)N1CCC(C(N)=O)CC1` (stereo not drawn), the cell number change turned out to be 2.63%. Moreover, the AC50 under setting [1] was 6.51 µM [falling, single point].
Turning to `O=C(COC(=O)C1C2CC3OC(=O)C1C3C2)Nc1ccc(F)cc1` (stereo not drawn), the cell number change is 9.4%. Moreover, under setting [1], the AC50 is 6.51 µM [falling, single point].
Take `COc1ccc(N2CCN(/C(=N\S(=O)(=O)c3ccccc3)Nc3nc(C)cc(C)n3)CC2)cc1`: the cell number change amounted to 1.76%. In addition, the AC50 under setting [1] was 3.26 µM [rising, partial curve, poor fit].
For the compound `Oc1ccccc1N1CCN(c2ccc3ccccc3n2)CC1`, the cell number change is -17.1%. Further, under setting [1], the AC50 is 29.1 µM [rising, partial curve, poor fit].
For `COc1ccc(Cl)cc1NC(=O)CN(C)C(=O)c1cn(-c2ccccc2)nc1-c1cccnc1`, the cell number change is -14%. The half-maximal activity concentration (AC50) under setting [2] was 0.517 µM [rising, full curve, poor fit]. Besides, under setting [1], the AC50 is 20.6 µM [falling, single point].
For `COc1ccccc1CNC(=O)CSc1nc(C)cs1`, the AC50 under setting [1] is 4.11 µM [falling, single point].
As to `CC1(C)COC(c2cc([N+](=O)[O-])ccc2Cl)=N1`, the cell number change was -20.4%. Also, under setting [2], the AC50 is 0.0517 µM [falling, full curve, poor fit].
Turning to `COC(=O)c1cc(C)sc1NC(=O)CC1Nc2ccccc2NC1=O` (stereo not drawn), under setting [1], the AC50 was 18.4 µM [falling, single point].
Consider `COc1ccc(C(CNC(=O)c2ccccc2SC)N(C)C)cc1` (stereo not drawn), for which the cell number change was -3.14%. The AC50 under setting [2] was 0.00461 µM [falling, full curve, poor fit].
With `Cc1ccc(S(=O)(=O)NCC(c2ccccc2)N2CCN(CCC#N)CC2)cc1` (stereo not drawn), the cell number change turned out to be 11.7%. In addition, the AC50 under setting [1] is 29.1 µM [rising, single point].
Turning to `Cc1cc(C)n(C(=O)c2ccc(Cn3nc(C)c(Br)c3C)o2)n1`, the cell number change is -42.7%. In addition, the AC50 under setting [2] is 13 µM [falling, partial curve]. In addition, the AC50 under setting [1] was 16.4 µM [falling, partial curve].

The AC50 is the concentration giving half of the maximal activity seen. A low value points to greater potency.
